This assay deals with human carbamoyl phosphate synthetase (CPS1), mature, N-terminal His6-tag (human) (UniProt P31327). The experiment in a line: crystal structure; crystals of apo CPS1 (2.4 Å, P21, two subunits = one dimer in the asymmetric unit) and of ligand-bound CPS1 (NAG, ADP; 2.6 Å, P1, four subunits = two dimers); both purified.

Results are given in words; binding and its absence hold for the method and conditions named. Some entries that bind do so weakly or less than the wild type. Tags and fused reporters may be left off the sequences shown.

B1: human carbamoyl phosphate synthetase (CPS1), mature, N-terminal His6-tag (enzyme, UniProt P31327 38-1500)
chain: LLSVKAQTAHIVLEDGTKMKGYSFGHPSSVAGEVVFNTGLGGYPEAITDPAYKGQILTMANPIIGNGGAPDTTALDELGLSKYLESNGIKVSGLLVLDYSKDYNHWLATKSLGQWLQEEKVPAIYGVDTRMLTKIIRDKGTMLGKIEFEGQPVDFVDPNKQNLIAEVSTKDVKVYGKGNPTKVVAVDCGIKNNVIRLLVKRGAEVHLVPWNHDFTKMEYDGILIAGGPGNPALAEPLIQNVRKILESDRKEPLFGISTGNLITGLAAGAKTYKMSMANRGQNQPVLNITNKQAFITAQNHGYALDNTLPAGWKPLFVNVNDQTNEGIMHESKPFFAVQFHPEVTPGPIDTEYLFDSFFSLIKKGKATTITSVLPKPALVASRVEVSKVLILGSGGLSIGQAGEFDYSGSQAVKAMKEENVKTVLMNPNIASVQTNEVGLKQADTVYFLPITPQFVTEVIKAEQPDGLILGMGGQTALNCGVELFKRGVLKEYGVKVLGTSVESIMATEDRQLFSDKLNEINEKIAPSFAVESIEDALKAADTIGYPVMIRSAYALGGLGSGICPNRETLMDLSTKAFAMTNQILVEKSVTGWKEIEYEVVRDADDNCVTVCNMENVDAMGVHTGDSVVVAPAQTLSNAEFQMLRRTSINVVRHLGIVGECNIQFALHPTSMEYCIIEVNARLSRSSALASKATGYPLAFIAAKIALGIPLPEIKNVVSGKTSACFEPSLDYMVTKIPRWDLDRFHGTSSRIGSSMKSVGEVMAIGRTFEESFQKALRMCHPSIEGFTPRLPMNKEWPSNLDLRKELSEPSSTRIYAIAKAIDDNMSLDEIEKLTYIDKWFLYKMRDILNMEKTLKGLNSESMTEETLKRAKEIGFSDKQISKCLGLTEAQTRELRLKKNIHPWVKQIDTLAAEYPSVTNYLYVTYNGQEHDVNFDDHGMMVLGCGPYHIGSSVEFDWCAVSSIRTLRQLGKKTVVVNCNPETVSTDFDECDKLYFEELSLERILDIYHQEACGGCIISVGGQIPNNLAVPLYKNGVKIMGTSPLQIDRAEDRSIFSAVLDELKVAQAPWKAVNTLNEALEFAKSVDYPCLLRPSYVLSGSAMNVVFSEDEMKKFLEEATRVSQEHPVVLTKFVEGAREVEMDAVGKDGRVISHAISEHVEDAGVHSGDATLMLPTQTISQGAIEKVKDATRKIAKAFAISGPFNVQFLVKGNDVLVIECNLRASRSFPFVSKTLGVDFIDVATKVMIGENVDEKHLPTLDHPIIPADYVAIKAPMFSWPRLRDADPILRCEMASTGEVACFGEGIHTAFLKAMLSTGFKIPQKGILIGIQQSFRPRFLGVAEQLHNEGFKLFATEATSDWLNANNVPATPVAWPSQEGQNPSLSSIRKLIRDGSIDLVINLPNNNTKFVHDNYVIRRTAVDSGIPLLTNFQVTKLFAEAVQKSRKVDSKSLFHYRQYSAGKAA
As for B1, the binding result is recorded as “binds weakly”.

Source of the values: publication PMC4655335.
